Experimental data published in PMC12508481.
Results are given in words; binding and its absence hold for the method and conditions named. In cells and extracts the contact can be indirect. Some binding calls cover weakened binding; strength is not graded here.

Chains of the proteins cited; added tags and fusions are not shown.
UniProt Q9UJV9: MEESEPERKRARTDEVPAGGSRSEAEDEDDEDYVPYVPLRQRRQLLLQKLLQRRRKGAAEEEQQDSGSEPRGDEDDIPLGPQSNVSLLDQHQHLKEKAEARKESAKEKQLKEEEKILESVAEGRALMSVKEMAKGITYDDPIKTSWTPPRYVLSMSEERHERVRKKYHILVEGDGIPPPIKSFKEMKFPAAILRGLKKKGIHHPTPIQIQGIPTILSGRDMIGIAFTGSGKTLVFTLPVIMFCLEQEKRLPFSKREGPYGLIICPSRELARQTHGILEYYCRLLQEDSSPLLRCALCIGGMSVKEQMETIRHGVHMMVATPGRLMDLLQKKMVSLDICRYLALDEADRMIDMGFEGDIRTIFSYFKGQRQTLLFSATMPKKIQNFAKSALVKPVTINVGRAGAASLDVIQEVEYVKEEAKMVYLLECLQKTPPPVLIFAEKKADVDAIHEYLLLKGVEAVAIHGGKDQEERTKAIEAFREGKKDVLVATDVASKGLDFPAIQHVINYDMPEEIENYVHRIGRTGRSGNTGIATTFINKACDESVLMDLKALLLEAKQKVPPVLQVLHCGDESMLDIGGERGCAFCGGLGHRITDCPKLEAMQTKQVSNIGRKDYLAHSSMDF

T1: CGG triplet repeat binding protein 1 (human (endogenous in U-2OS)) (UniProt Q9UFW8)
T1 sequence: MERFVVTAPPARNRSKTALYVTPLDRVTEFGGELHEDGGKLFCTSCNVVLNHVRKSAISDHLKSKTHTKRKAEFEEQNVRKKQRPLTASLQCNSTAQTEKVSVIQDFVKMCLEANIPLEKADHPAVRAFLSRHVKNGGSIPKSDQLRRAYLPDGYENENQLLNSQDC


How the values were obtained:
[1] = target: T1, CGG triplet repeat binding protein 1 (human (endogenous in U-2OS)); test: co-IP; IP of endogenous CGGBP1 from U-2OS lysate, control IgG-IP, Western blot for DHX15, DDX41, RNAPII; lysates with or without benzonase (1250 units/mL, 3 h, 4 °C)
[2] = target: DDX41, ATP-dependent DEAD-box DNA:RNA helicase (human (endogenous in U-2OS)) (UniProt Q9UJV9); test: co-IP; reverse co-IP: IP of endogenous DDX41 or DHX15 from U-2OS whole cell lysates with and without benzonase, Western blot for CGGBP1

binding [1]	binding [2]	Molecule
binds	–	DDX41, ATP-dependent DEAD-box DNA:RNA helicase (from UniProt Q9UJV9 1-622) (enzyme)
–	binds	CGG triplet repeat binding protein 1 (protein, UniProt Q9UFW8 1-167) MERFVVTAPPARNRSKTALYVTPLDRVTEFGGELHEDGGKLFCTSCNVVLNHVRKSAISDHLKSKTHTKRKAEFEEQNVRKKQRPLTASLQCNSTAQTEKVSVIQDFVKMCLEANIPLEKADHPAVRAFLSRHVKNGGSIPKSDQLRRAYLPDGYENENQLLNSQDC
